According to the supplement of paper PMC4604168 (melanoma cell lines):
Some of the results follow. Many values rest on one well or one pass, so single values are uncertain.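 Imaging used 1,536-well plates; nuclei positive for cleaved PARP by antibody were divided by total DNA-stained nuclei to yield the apoptosis fraction. Doses for screening kept most cells viable, and cell lines differ markedly in resting and induced cleaved-PARP levels.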

What follows are molecules tested on CBRC013 (line from a melanoma biopsy) (assay: cleaved PARP positive nuclei fraction relative to DMSO control; melanoma cells; higher = more apoptosis). Details: library dose: low library concentration; 72 h.

Row | SMILES | cleaved PARP positive nuclei fraction
1 | OCCn1cc(-c2cnc3nnn(Cc4ccc5ncccc5c4)c3n2)cn1 + Cc1cc([N+](=O)[O-])ccc1NS(=O)(=O)c1cc(Cl)ccc1Cl [FH535] (first compound 1 µM, partner dose 1 µM) | 81.8%
2 | Nc1cccc2c1CN(C1CCC(=O)NC1=O)C2=O (stereo unspecified) [lenalidomide] + CCN(CC)CCCCNc1ncc2cc(-c3cc(OC)cc(OC)c3)c(NC(=O)NC(C)(C)C)nc2n1 [PD173074] (first compound 1 µM, partner dose 0.1 µM) | 96.9%
3 | C[C@@H]1CCN(C(=O)CC#N)C[C@@H]1N(C)c1ncnc2[nH]ccc12 + O=C(O)C(=O)Nc1sc2c(c1C(=O)O)CCNC2 [TCS401] (first compound 1 µM, partner dose 1.66667 µM) | 43.3%
4 | OCCn1cc(-c2cnc3nnn(Cc4ccc5ncccc5c4)c3n2)cn1 + COc1ccc2c(c1)CCC1C2CCC2(C)C(NCCCCCCN3C(=O)C=CC3=O)CCC12 [U73122] (first compound 1 µM, partner dose 0.4 µM) | 92.5%
5 | Cc1cc(N2CCOCC2)cc2[nH]c(-c3c(NC[C@@H](O)c4cccc(Cl)c4)cc[nH]c3=O)nc12 + O=C(Nc1ccccc1)c1cc([N+](=O)[O-])ccc1Cl [GW9662] (first compound 0.2 µM, partner dose 2 µM) | 296%
6 | Nc1cccc2c1CN(C1CCC(=O)NC1=O)C2=O (stereo unspecified) [lenalidomide] + O=C(Nc1ccccc1)c1cc([N+](=O)[O-])ccc1Cl [GW9662] (first compound 1 µM, partner dose 2 µM) | 87%
